Measured values from patent publication US12630586 (dated 2026).
*: point of attachment. Acm = CC(=O)NC*

Legend:
[1] = general procedure: hybrid (solid and solution phase) peptide synthesis; 2-CTC resin; DIC/HOBT (solid phase); HATU/HOAT/DIPEA (fragment coupling in solution); settings: whole synthesis, analytical HPLC, scale of the general procedure 750 gm CTC resin (Fragment A), 445 gm CTC resin (Fragment D)
[2] = general procedure: hybrid (solid and solution phase) peptide synthesis; 2-chlorotrityl (CTC) resin; DIC/HOBT (solid phase); HATU/HOAT/DIPEA (fragment coupling in solution); settings: late stage modification step, analytical HPLC

Substance	final purity (method not given) [1]	further results
Boc-Asn(Xan)-Asp(Otbu)-Glu(Otbu)-Cys(Trt)-Glu(Otbu)-Leu-OH	90.74%	
Fmoc-Cys(Acm)-Val-Asn(Trt)-Val-Ala-Cys(Trt)-Thr(tbu)-OH	94.29%	
H-Cys(Acm)-Val-Asn(Trt)-Val-Ala-Cys(Trt)-Thr(tbu)-Gly-Cys(Acm)-Leu-Otbu		crude HPLC purity [2]: ˜ 97%
H-NDECELC(Acm)VNVACTGC(Acm)L-OH (cysteine pairing not given here)		crude purity (method not given) [2]: 73%
